Measured values: the supplement of paper PMC8497498
± gives the standard deviation of the averaged measurements. This is one part of the list. The data scatter; read single values as rough.

The compounds below were run on Plasmodium vivax liver stage (primary human hepatocyte culture) (assay: hypnozoite quantity inhibition (% inhibition); higher = more active against hypnozoites). Settings: 10 µM; assay mode: Prophylactic (treated before or shortly after infection), fixed day 6 post-infection.

| SMILES | hypnozoite quantity inhibition |
| --- | --- |
| Cc1ccc2nc(Cl)c(CNCc3cccs3)cc2c1 | -62 |
| CC(C)(CN)c1nc(-c2ccc(Cl)c(O)c2)c(-c2ccnc(N)n2)[nH]1 | 40 |
| O[C@H](c1cc(C(F)(F)F)nc2c(C(F)(F)F)cccc12)[C@@H]1CCCCN1 | 4 ± 40 |
| CCOC(=O)c1cnc2c(C)cc(C)cc2c1Nc1ccc(OC)c(OC)c1 | -22.9 |
| Nc1nc(O)c(Br)c(-c2ccccc2)n1 | -32 |
| O=C(NC1CCN(Cc2ccccc2)CC1)c1cc(-c2ccncc2)nc2ccc(Cl)cc12 | -20.6 |
| OC[C@H]1O[C@@H](n2c3ccc(Cl)cc3c3c(-c4cc5ccccc5o4)ncnc32)C(O)[C@H]1O (stereo not given in full) | 18 |
| Nc1ncnc2c1ncn2C[C@@H](O)[C@@H](O)C(=O)O | 24 |
| CNc1cc(C)nc(C2CN(C(=O)c3n[nH]c4ccccc34)CCO2)c1 (stereo not given) | 25 |
| Cc1ccc(NC(=O)CC2COc3ccccc3O2)cc1Cl (stereo not given) | -16 |
| COc1cc2cc(C(=O)Nc3ccccc3)c(N)nc2cc1OC | -13.2 |
| CCc1ccc(C(NCc2nc(N)nc(N(C)C)n2)C(C)C)cc1 (stereo not given) | -72 |
| OC(CNCC1CCCO1)Cn1c2ccc(Cl)cc2c2cc(Cl)ccc21 (stereo not given) | 22.1 |
| c1ccc(Cn2c(N=Nc3c(Nc4ccccc4)ccc4ccccc34)nc3ccccc32)cc1 | -38.5 |
| Oc1ccccc1CN1CCC2(CCCN(Cc3ccccc3F)C2)C1 (stereo not given) | 91 |
| Cc1c(C)n(Cc2ccc(F)cc2)c2ccc(C(=O)NCc3ccco3)cc12 | 10.7 |
| CC(C)N=C(N)N=C(N)Nc1ccc(Cl)cc1 | -44 |
| Cc1cc(OCC(=O)NCc2ccccc2)c2cc(Br)ccc2n1 | -11 |
| Cc1nc(Nc2ncc(N3CCN(C)C(C)C3)c(Nc3cc(C)n(C)n3)n2)cc(C2CC2)c1F (stereo not given) | 53 |
| O=C(c1ccc(F)cc1)N(CCNc1ccccc1)c1ccccc1 | 36 |

| SMILES | hypnozoite quantity inhibition |
| --- | --- |
| CCOc1ccc(C2N(C)c3ccccc3N2C)cc1 | 12.8 |
| COc1ccc(-c2cc(=O)oc3c4c(ccc23)OCN(Cc2ccc(F)cc2)C4)cc1 | 10.1 |
| Cc1cc(C(=O)Nc2ccc(-c3ccccc3)cc2)no1 | -11 |
| CNC(=O)c1cc(S(=O)(=O)N2CCN(c3ccccn3)CC2)cs1 | -52 |
| CC(C)n1nc(-c2cc3c(Cl)cccc3[nH]2)c2c(N)ncnc21 | -13 |
| CCCCN(CCCC)CCC(O)c1cc2c(Cl)cc(Cl)cc2c2cc(C(F)(F)F)ccc12 (stereo not given) | -39 |
| COCCNC(=O)c1ccc(OC2CCN(Cc3ccc(F)c(F)c3)CC2)c(Cl)c1 | -13.2 |
| Cc1cnc(N2CCN[C@@H](Cc3ccccc3)C2)nc1Oc1ccc(-n2ccnc2)cc1 | -26 |
| COc1ccc(CNC2CCN(c3ccc(NC(=O)c4cccc(Cl)c4)cc3)CC2)cc1OC | -40.7 |
| O=C(Nc1nc(-c2ccccn2)cs1)c1ccccc1Br | 15.1 |
| CC1=Nc2ccc(Cl)cc2C(O)(c2ccc(C)cc2)N1CCN1CCCCC1 (stereo not given) | -34 |
| COc1ccc2nc3cc(Cl)ccc3c(Nc3cc(CN4CCCC4)c(O)c(CN4CCCC4)c3)c2n1 | -79 |
| COc1ccc2nc(C)cc(OCC(=O)NCc3ccccc3)c2c1 | -3 |
| OC(CNC1CCCCC1)Cn1c2ccc(I)cc2c2cc(I)ccc21 (stereo not given) | 21.5 |
| COc1ccc(NC(=O)C2c3ccccc3C(=O)N(CC(C)C)C2c2cccs2)cc1 (stereo not given) | 20.9 |
| CNc1nnc(Sc2cnn(-c3ccccc3)c(=O)c2Cl)s1 | 17 |
| N#CCN(CCCCN1CCN(c2ccc(F)cc2)CC1)C(=O)OCc1ccccc1 | 7 |
| CC(C)(C)CC(C)(C)NCC(O)COc1ccc(Cl)cc1Cl (stereo not given) | 26.2 |
| CCOc1cc2c(cc1OCC)C(c1cc(OC)c(O)cc1Cl)NCC2 (stereo not given) | -40.7 |
| COc1cccc(-c2nn(C)c3sc(C(=O)NCCN4CCN(c5ccccc5F)CC4)cc23)c1 | -6.3 |

Same assay, conditions: 10 µM; assay mode: Radical Cure (treated from day 5 post-infection for 3 days), fixed day 8 post-infection

| SMILES | hypnozoite quantity inhibition |
| --- | --- |
| Cc1ccc2nc(Cl)c(CNCc3cccs3)cc2c1 | 6 |
| CC(C)(CN)c1nc(-c2ccc(Cl)c(O)c2)c(-c2ccnc(N)n2)[nH]1 | -58 |
| O[C@H](c1cc(C(F)(F)F)nc2c(C(F)(F)F)cccc12)[C@@H]1CCCCN1 | 38 ± 14 |
| CCOC(=O)c1cnc2c(C)cc(C)cc2c1Nc1ccc(OC)c(OC)c1 | -3.1 |
| Nc1nc(O)c(Br)c(-c2ccccc2)n1 | -17 |
| O=C(NC1CCN(Cc2ccccc2)CC1)c1cc(-c2ccncc2)nc2ccc(Cl)cc12 | 22.1 |
| OC[C@H]1O[C@@H](n2c3ccc(Cl)cc3c3c(-c4cc5ccccc5o4)ncnc32)C(O)[C@H]1O (stereo not given in full) | -15 |
| Nc1ncnc2c1ncn2C[C@@H](O)[C@@H](O)C(=O)O | -33 |
| CNc1cc(C)nc(C2CN(C(=O)c3n[nH]c4ccccc34)CCO2)c1 (stereo not given) | -46 |
| Cc1ccc(NC(=O)CC2COc3ccccc3O2)cc1Cl (stereo not given) | -36 |
| COc1cc2cc(C(=O)Nc3ccccc3)c(N)nc2cc1OC | 47.3 |
| CCc1ccc(C(NCc2nc(N)nc(N(C)C)n2)C(C)C)cc1 (stereo not given) | -28 |
| OC(CNCC1CCCO1)Cn1c2ccc(Cl)cc2c2cc(Cl)ccc21 (stereo not given) | 34.6 |
| c1ccc(Cn2c(N=Nc3c(Nc4ccccc4)ccc4ccccc34)nc3ccccc32)cc1 | 1.5 |
| Oc1ccccc1CN1CCC2(CCCN(Cc3ccccc3F)C2)C1 (stereo not given) | 42.8 |
| Cc1c(C)n(Cc2ccc(F)cc2)c2ccc(C(=O)NCc3ccco3)cc12 | 67.3 |
| CC(C)N=C(N)N=C(N)Nc1ccc(Cl)cc1 | 7 |
| Cc1cc(OCC(=O)NCc2ccccc2)c2cc(Br)ccc2n1 | -2 |
| Cc1nc(Nc2ncc(N3CCN(C)C(C)C3)c(Nc3cc(C)n(C)n3)n2)cc(C2CC2)c1F (stereo not given) | 34 |
| O=C(c1ccc(F)cc1)N(CCNc1ccccc1)c1ccccc1 | -7 |

| SMILES | hypnozoite quantity inhibition |
| --- | --- |
| CCOc1ccc(C2N(C)c3ccccc3N2C)cc1 | 61.1 |
| COc1ccc(-c2cc(=O)oc3c4c(ccc23)OCN(Cc2ccc(F)cc2)C4)cc1 | -3.5 |
| Cc1cc(C(=O)Nc2ccc(-c3ccccc3)cc2)no1 | -7 |
| CNC(=O)c1cc(S(=O)(=O)N2CCN(c3ccccn3)CC2)cs1 | -36 |
| CC(C)n1nc(-c2cc3c(Cl)cccc3[nH]2)c2c(N)ncnc21 | -51 |
| CCCCN(CCCC)CCC(O)c1cc2c(Cl)cc(Cl)cc2c2cc(C(F)(F)F)ccc12 (stereo not given) | 26 |
| COCCNC(=O)c1ccc(OC2CCN(Cc3ccc(F)c(F)c3)CC2)c(Cl)c1 | 38.2 |
| Cc1cnc(N2CCN[C@@H](Cc3ccccc3)C2)nc1Oc1ccc(-n2ccnc2)cc1 | 14 |
| COc1ccc(CNC2CCN(c3ccc(NC(=O)c4cccc(Cl)c4)cc3)CC2)cc1OC | 24.4 |
| O=C(Nc1nc(-c2ccccn2)cs1)c1ccccc1Br | 40.5 |
| CC1=Nc2ccc(Cl)cc2C(O)(c2ccc(C)cc2)N1CCN1CCCCC1 (stereo not given) | 31 |
| COc1ccc2nc3cc(Cl)ccc3c(Nc3cc(CN4CCCC4)c(O)c(CN4CCCC4)c3)c2n1 | 39 |
| COc1ccc2nc(C)cc(OCC(=O)NCc3ccccc3)c2c1 | 3 |
| OC(CNC1CCCCC1)Cn1c2ccc(I)cc2c2cc(I)ccc21 (stereo not given) | 18.3 |
| COc1ccc(NC(=O)C2c3ccccc3C(=O)N(CC(C)C)C2c2cccs2)cc1 (stereo not given) | 31.9 |
| CNc1nnc(Sc2cnn(-c3ccccc3)c(=O)c2Cl)s1 | -83 |
| N#CCN(CCCCN1CCN(c2ccc(F)cc2)CC1)C(=O)OCc1ccccc1 | 3 |
| CC(C)(C)CC(C)(C)NCC(O)COc1ccc(Cl)cc1Cl (stereo not given) | 19.8 |
| CCOc1cc2c(cc1OCC)C(c1cc(OC)c(O)cc1Cl)NCC2 (stereo not given) | -0.8 |
| COc1cccc(-c2nn(C)c3sc(C(=O)NCCN4CCN(c5ccccc5F)CC4)cc23)c1 | 15.6 |
